Values from PubChem BioAssay AID1259308 (NCATS, 2017).
Aim: 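Knock-downs that increase output of a recombinant reporter protein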 (primary screen). System: human HEK293 embryonic kidney cells stably expressing firefly luciferase (HEK-CMV-Luc2-Hygro). Reagent: single siRNA against human genes, 0.8 pmol siRNA per well. Duration: 72 h. Measurement: 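Luciferase light (ONE-Glo) measured on one replicate plate set and viability (CellTiter-Glo) on the other, scaled to a negative control siRNA, with robust z-scores and luciferase per cell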. Scale: total luciferase, z-score and total luciferase, % of control: higher = more reporter protein produced. Call rule: 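Active when the median/MAD z-score for overall luciferase is greater than 3; a gene was taken forward for validation with new siRNAs if at least two of its three siRNAs passed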. Calls: active = raised luciferase; inactive = no rise.
This is a random part of about 59,000 deposited reagents. Of all reagents, about 1,510 (2.6%) were called active. 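Calls use total luciferase alone and ignore viability, so some active siRNAs may act by altering cell number.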 The numbers tell different reagents against one gene apart. Not all columns of the deposit are shown. Reagent sequences are not shown.

SERPINB5 #1 showed total luciferase, z-score -0.264; total luciferase, % of control 76.6; inactive.
After knock-down of SERPINB5 #2, the screen gave total luciferase, z-score 0.103; total luciferase, % of control 83.9; inactive.
SERPINB5 #3 gave total luciferase, z-score 0.17; total luciferase, % of control 85.3; inactive.
With knock-down of SLC33A2 #1 the results were total luciferase, z-score -0.817; total luciferase, % of control 65.6; inactive.
After knock-down of SLC33A2 #2, the screen gave total luciferase, z-score -1.2; total luciferase, % of control 57.9; inactive.
Silencing of SLC33A2 #3 resulted in: total luciferase, z-score -0.958; total luciferase, % of control 62.8; inactive.
DNTTIP2 #1 gave total luciferase, z-score -0.627; total luciferase, % of control 69.4; inactive.
DNTTIP2 #2 showed total luciferase, z-score -1.52; total luciferase, % of control 51.6; inactive.
DNTTIP2 #3 showed total luciferase, z-score -3.1; total luciferase, % of control 20.3; inactive.
With knock-down of EFCAB9 #1, the screen gave total luciferase, z-score 1.56; total luciferase, % of control 113; inactive.
EFCAB9 #2 scored total luciferase, z-score -1.93; total luciferase, % of control 43.5; inactive.
Depletion of EFCAB9 #3 gave: total luciferase, z-score 1.59; total luciferase, % of control 113; inactive.
Silencing of CPA3 #1 resulted in: total luciferase, z-score -1.03; total luciferase, % of control 61.4; inactive.
Against CPA3 #2 the deposit lists total luciferase, z-score -0.941; total luciferase, % of control 63.2; inactive.
With knock-down of CPA3 #3 the results were total luciferase, z-score -0.649; total luciferase, % of control 69; inactive.
Against ZBTB37 #1 the deposit lists total luciferase, z-score 1.63; total luciferase, % of control 114; inactive.
Against ZBTB37 #2, the entry reads total luciferase, z-score 0.23; total luciferase, % of control 86.5; inactive.
After knock-down of ZBTB37 #3 the results were total luciferase, z-score -0.577; total luciferase, % of control 70.4; inactive.
ZNF627 #1 showed total luciferase, z-score 0.46; total luciferase, % of control 91; inactive.
For ZNF627 #2 the deposit lists total luciferase, z-score -0.421; total luciferase, % of control 73.5; inactive.
ZNF627 #3 scored total luciferase, z-score 0.63; total luciferase, % of control 94.4; inactive.
LRRC15 #1 showed total luciferase, z-score 3.53; total luciferase, % of control 152; active.
LRRC15 #2 scored total luciferase, z-score -2.6; total luciferase, % of control 30.1; inactive.
Silencing of LRRC15 #3 gave: total luciferase, z-score 2.1; total luciferase, % of control 124; inactive.
Knock-down of MEGF10 #1 resulted in: total luciferase, z-score 0.545; total luciferase, % of control 92.7; inactive.
MEGF10 #2 scored total luciferase, z-score -0.262; total luciferase, % of control 76.7; inactive.
MEGF10 #3 showed total luciferase, z-score 0.26; total luciferase, % of control 87.1; inactive.

Already shown: 4 of the entries above.
ZBTB37 #3 — total luciferase, z-score: -0.577; total luciferase, % of control: 70.4; activity call: inactive
ZNF627 #1 — total luciferase, z-score: 0.46; total luciferase, % of control: 91; activity call: inactive
ZNF627 #2 — total luciferase, z-score: -0.421; total luciferase, % of control: 73.5; activity call: inactive
ZNF627 #3 — total luciferase, z-score: 0.63; total luciferase, % of control: 94.4; activity call: inactive

Next entries:
RPL17P39 #1 showed total luciferase, z-score -3.13; total luciferase, % of control 19.7; inactive.
After knock-down of RPL17P39 #2, the screen gave total luciferase, z-score 2.91; total luciferase, % of control 140; inactive.
RPL17P39 #3 scored total luciferase, z-score -0.57; total luciferase, % of control 70.6; inactive.
Depletion of DHRSX #1 resulted in: total luciferase, z-score -0.0721; total luciferase, % of control 80.5; inactive.
For DHRSX #2, the values are total luciferase, z-score 0.761; total luciferase, % of control 97; inactive.
DHRSX #3 gave total luciferase, z-score 1.36; total luciferase, % of control 109; inactive.
SMCO2 #1 scored total luciferase, z-score 1.44; total luciferase, % of control 110; inactive.
Against SMCO2 #2, the entry reads total luciferase, z-score 2.63; total luciferase, % of control 134; inactive.
After knock-down of SMCO2 #3 the results were total luciferase, z-score -1.22; total luciferase, % of control 57.7; inactive.
After knock-down of CYP3A5 #1, the screen gave total luciferase, z-score 2.14; total luciferase, % of control 124; inactive.
Silencing of CYP3A5 #2 gave: total luciferase, z-score -0.00189; total luciferase, % of control 81.8; inactive.
CYP3A5 #3 gave total luciferase, z-score -0.658; total luciferase, % of control 68.8; inactive.
Depletion of ACHE #1 gave: total luciferase, z-score 1.81; total luciferase, % of control 118; inactive.
ACHE #2 showed total luciferase, z-score 0.742; total luciferase, % of control 96.6; inactive.
ACHE #3 gave total luciferase, z-score -0.546; total luciferase, % of control 71; inactive.
